# Screening data, single-dose tests

By UniProt entry, the sequences of proteins in these tests, tags left out. Residues count along the entry.
UniProt Q4DA54, 1-478: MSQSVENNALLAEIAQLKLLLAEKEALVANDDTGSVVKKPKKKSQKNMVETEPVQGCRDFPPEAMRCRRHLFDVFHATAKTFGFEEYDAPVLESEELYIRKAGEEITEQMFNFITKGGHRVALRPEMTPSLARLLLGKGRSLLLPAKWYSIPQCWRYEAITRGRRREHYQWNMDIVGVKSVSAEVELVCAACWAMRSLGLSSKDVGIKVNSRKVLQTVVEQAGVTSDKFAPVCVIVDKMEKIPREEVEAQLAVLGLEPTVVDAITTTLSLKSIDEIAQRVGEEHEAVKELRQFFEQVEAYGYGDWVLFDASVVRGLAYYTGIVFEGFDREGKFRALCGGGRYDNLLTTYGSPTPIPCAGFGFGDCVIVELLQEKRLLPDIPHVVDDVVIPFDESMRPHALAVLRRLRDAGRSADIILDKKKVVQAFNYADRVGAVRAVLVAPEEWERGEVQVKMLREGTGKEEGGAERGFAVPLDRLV
UniProt P9WNZ1, whole entry: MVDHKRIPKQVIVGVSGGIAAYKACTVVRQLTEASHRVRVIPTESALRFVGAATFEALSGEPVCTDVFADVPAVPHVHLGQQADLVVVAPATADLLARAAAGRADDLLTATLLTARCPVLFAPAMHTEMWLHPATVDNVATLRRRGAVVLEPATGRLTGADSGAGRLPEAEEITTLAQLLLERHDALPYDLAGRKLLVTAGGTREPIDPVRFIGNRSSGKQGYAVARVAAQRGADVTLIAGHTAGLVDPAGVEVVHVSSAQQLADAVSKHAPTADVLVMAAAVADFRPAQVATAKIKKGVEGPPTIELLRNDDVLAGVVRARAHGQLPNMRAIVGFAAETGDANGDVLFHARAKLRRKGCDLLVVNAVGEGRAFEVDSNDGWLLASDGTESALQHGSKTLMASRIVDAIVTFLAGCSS
UniProt P9WPC5, whole entry: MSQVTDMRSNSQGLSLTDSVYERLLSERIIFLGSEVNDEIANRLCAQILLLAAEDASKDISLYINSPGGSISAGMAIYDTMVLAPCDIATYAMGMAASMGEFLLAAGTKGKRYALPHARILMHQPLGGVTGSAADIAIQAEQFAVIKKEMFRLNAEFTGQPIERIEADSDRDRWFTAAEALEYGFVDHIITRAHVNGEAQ
UniProt P9WPC3, whole entry partner: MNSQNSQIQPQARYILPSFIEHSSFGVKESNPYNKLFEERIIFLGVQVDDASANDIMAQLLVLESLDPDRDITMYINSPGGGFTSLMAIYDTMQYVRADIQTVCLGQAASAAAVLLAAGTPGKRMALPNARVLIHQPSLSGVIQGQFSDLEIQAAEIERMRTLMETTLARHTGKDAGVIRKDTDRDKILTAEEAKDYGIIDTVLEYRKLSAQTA
UniProt Q8IDJ8, 1-583: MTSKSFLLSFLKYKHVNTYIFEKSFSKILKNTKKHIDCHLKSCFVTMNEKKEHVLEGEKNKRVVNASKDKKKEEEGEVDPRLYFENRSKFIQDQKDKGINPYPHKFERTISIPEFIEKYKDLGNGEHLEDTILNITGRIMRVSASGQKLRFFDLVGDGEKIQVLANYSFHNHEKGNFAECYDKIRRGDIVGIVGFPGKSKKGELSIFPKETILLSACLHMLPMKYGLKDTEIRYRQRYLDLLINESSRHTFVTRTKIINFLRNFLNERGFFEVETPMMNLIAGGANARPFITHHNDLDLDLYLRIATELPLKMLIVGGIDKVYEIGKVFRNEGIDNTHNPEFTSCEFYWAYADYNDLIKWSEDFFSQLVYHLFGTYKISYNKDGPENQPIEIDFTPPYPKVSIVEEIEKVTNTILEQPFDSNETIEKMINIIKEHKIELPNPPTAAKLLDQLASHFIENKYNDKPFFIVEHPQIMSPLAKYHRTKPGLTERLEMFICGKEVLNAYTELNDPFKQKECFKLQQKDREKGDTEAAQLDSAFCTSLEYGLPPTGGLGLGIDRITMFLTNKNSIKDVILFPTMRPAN

From ChEMBL document CHEMBL3988442, “University of Dundee, Small-Polar-MMV Screening Library” (2021).

The filed quantity is “Percent Effect” (%).
The record does not define 0% and 100%; most values in the screen are far below 50% and negative numbers occur (in some assays of this library far below -100).
Compounds were drawn at random from those tested, without regard to their results.
Two or more numbers in one place are separate tests of the same structure; such repeats can differ widely.

Leishmania in macrophages: 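Cell assay of Leishmania donovani living inside macrophages; the read-out is not stated. Compounds at 30 µM. Direction is inferred from retests: higher values go with stronger inhibition. About 69,000 compounds were tested under these conditions; 1.5% (about 1,000) showed 50% or more at least once.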
TcHisRS: 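Enzyme assay of histidyl-tRNA synthetase; the read-out is not stated. Target: Histidine-tRNA ligase, Trypanosoma cruzi CL Brener (UniProt Q4DA54). Concentration: 30 µM. Direction is inferred from retests: higher values go with stronger inhibition. Of about 69,000 compounds tested this way, about 31 (0.045%) reached 50% or more in at least one test.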
CoaBC: 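Enzyme assay of CoaBC with a phosphate dye (Biomol Green) read at 650 nm. Target: Coenzyme A biosynthesis protein CoaBC, Mycobacterium tuberculosis (UniProt P9WNZ1). Compounds at 30 µM. Higher reads as stronger inhibition, judged from the few compounds that gave an IC50. Most strong results did not repeat in a second test. Size under these conditions: about 67,000 compounds, about 40 of them at 50% or above in at least one test.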
ClpP1P2: 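Protease assay of ClpP1P2, read by the AMC dye that it sets free. Target: ClpP1P2, Mycobacterium tuberculosis (UniProt P9WPC5 and UniProt P9WPC3). Compounds at 50 µM. Direction is inferred from only a few compounds that gave an IC50; most scored high, so higher reads as stronger inhibition. Most other retested compounds had strongly negative values. About 69,000 compounds were tested under these conditions; 0.015% (about 10) showed 50% or more at least once.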
PfKRS1: 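Lysine-tRNA ligase, Plasmodium falciparum 3D7 (UniProt Q8IDJ8). Enzyme assay of the cytosolic lysyl-tRNA synthetase in 384-well plates, read by luminescence. Compounds at 30 µM. Direction is inferred from only a few compounds that gave an IC50; most scored high, so higher reads as stronger inhibition. About 69,000 compounds were tested under these conditions; 0.071% (about 49) showed 50% or more at least once.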

- CCN1CCOCC12CCN(C(=O)Cc1ccccc1)CC2.O=C(O)C(F)(F)F : Leishmania in macrophages: 5.324%
- C[C@@H]1CN(c2nc3c(cc2C(N)=O)CCC3)C[C@]1(C)O : Leishmania in macrophages: 16.68%; TcHisRS: -6.186%; CoaBC: -3.132%; ClpP1P2: -6.157%; PfKRS1: -3.956%
- CCN(CC)CCNC(=O)CCc1c(C)nn(-c2ccccc2Br)c1C : Leishmania in macrophages: -2.482%; TcHisRS: 61.36%; CoaBC: -1.214%; ClpP1P2: -7.628%; PfKRS1: 0.1957%
- Cc1cc(C)c(CNC(=O)N2CCCC2c2ccccn2)c(=O)[nH]1 (stereo not given) : Leishmania in macrophages: 14.85%; TcHisRS: 5.444%; CoaBC: 1.863%; ClpP1P2: -0.04195%; PfKRS1: -0.08265%
- Cc1nc(CN2CCc3ncnc(C4CCOC4)c3CC2)cs1 (stereo not given) : TcHisRS: 7.463%; CoaBC: 0%; ClpP1P2: -24.83%; PfKRS1: -0.0365%
- COCCOc1ccnc(-c2noc([C@@H]3CCCN3C(C)C)n2)c1 : Leishmania in macrophages: 13.89%; TcHisRS: 5.435%; CoaBC: -1.104%; ClpP1P2: -3.272%; PfKRS1: 3.178%
- CC(C)[C@H]1CN(Cc2ccccc2C#N)C[C@@H]1NC(=O)C1CCOCC1 : Leishmania in macrophages: 2.464%; TcHisRS: 3.017%; CoaBC: 1.394%; ClpP1P2: -8.479%; PfKRS1: -2.608%
- CCn1c(CN2CCN(CCO)CC2)nc2c(F)cccc21 : Leishmania in macrophages: 20.17%; TcHisRS: 7.692%; CoaBC: 6.971%; ClpP1P2: -21.66%; PfKRS1: -1.543%
- NC(=O)c1cnc(NC2CCN(c3ccccc3)CC2)c(Cl)c1 : Leishmania in macrophages: -3.545%; TcHisRS: 9.091%; CoaBC: -0.9724%; ClpP1P2: 10.43%; PfKRS1: 1.792%
- COc1ncccc1NC(=O)C1CC(=O)N(Cc2ccccn2)C1 (stereo not given) : Leishmania in macrophages: 14.78%; TcHisRS: 6.522%; CoaBC: 12.01%; ClpP1P2: 5.411%; PfKRS1: 8.207%
- Cc1nc(C(NC(=O)CN(C)C(C)C)c2ccccc2F)no1 (stereo not given) : Leishmania in macrophages: 25.69%; TcHisRS: -3.704%; CoaBC: 1.595%; ClpP1P2: 6.015%; PfKRS1: -3.488%
- O=S(=O)(NCCc1ccccc1F)N1CCOCC1 : Leishmania in macrophages: 4.133%; TcHisRS: 0%; CoaBC: 10.44%; ClpP1P2: -4.128%; PfKRS1: 0.8917%
- Cc1ccc(NC2CCN(C(=O)Cc3ccc(C#N)cc3)CC2)nn1 : Leishmania in macrophages: 10.41%; TcHisRS: 3.008%; CoaBC: 3.203%; ClpP1P2: -0.1894%; PfKRS1: 1.758%
- [H][C@@]12CN(C(=O)c3cc(C)oc3C)C[C@]1([H])[C@H]2CN(C)CCCn1cccn1 : Leishmania in macrophages: 26.95%
- Cc1ccc(S(=O)(=O)N2CCC(Oc3ccccn3)CC2)c(C)c1 : Leishmania in macrophages: 9.832%; TcHisRS: 3.093%; CoaBC: 16.28%; ClpP1P2: -4.256%; PfKRS1: -1.641%
- O=C(NCc1cccnc1)C1=NOC2(CCN(C(=O)N3CCCC3)C2)C1.O=C(O)C(F)(F)F (stereo not given) : Leishmania in macrophages: 4.064%
- O=C(c1ccccc1)N(CC1CC1)c1cccnc1 : Leishmania in macrophages: 5.215%; TcHisRS: 1.98%; CoaBC: 3.524%; ClpP1P2: -3.159%; PfKRS1: 2.898%
- Cc1cc(N2Cc3cnc(CC(C)C)nc3C2)nc(N)n1 : Leishmania in macrophages: 10.88%; TcHisRS: 10.31%; CoaBC: -8.132%; ClpP1P2: -1.418%; PfKRS1: -0.8913%
- O=C(CN1CCCC1c1nc(-c2ccccn2)no1)N1CCNCC1 (stereo not given) : Leishmania in macrophages: -1.52%; TcHisRS: 7.447%; CoaBC: -18.87%; ClpP1P2: 2.995%; PfKRS1: 4.322%
- Cn1nnc2c1C(COCc1ccccn1)CN(C(=O)c1ccsc1)C2.O=C(O)C(F)(F)F (stereo not given) : Leishmania in macrophages: 27.78%
- CCc1ccc(CN2CCc3ncnc(N4CCOCC4)c3CC2)o1.O=C(O)C(F)(F)F : Leishmania in macrophages: 1.763% and 17.85%
- [H][C@]12CN(Cc3ccccc3Cl)CCN1C(=O)N(Cc1ccc(C)cc1)C2 : Leishmania in macrophages: -13.63%

Repeated from the top, 2 entries:

- CCN1CCOCC12CCN(C(=O)Cc1ccccc1)CC2.O=C(O)C(F)(F)F : Leishmania in macrophages: 5.324%
- C[C@@H]1CN(c2nc3c(cc2C(N)=O)CCC3)C[C@]1(C)O : Leishmania in macrophages: 16.68%; TcHisRS: -6.186%; CoaBC: -3.132%; ClpP1P2: -6.157%; PfKRS1: -3.956%